According to article doi:10.1101/708180:
These are yes or no findings as the source states them, for the method shown. For some of these results: Binding seen in cells or lysates may run through a third protein. Some results given as binding are weak or reduced against the parent protein; the word gives no strength.

Protein sequences, listed by entry. Tags and fused reporters are not part of them. Lines headed by an entry give the natural chain unless they say otherwise; changes in a name come on top. Chains listed by the source or under a name are the forms on record and can include a tag or linker.
UniProt P04792: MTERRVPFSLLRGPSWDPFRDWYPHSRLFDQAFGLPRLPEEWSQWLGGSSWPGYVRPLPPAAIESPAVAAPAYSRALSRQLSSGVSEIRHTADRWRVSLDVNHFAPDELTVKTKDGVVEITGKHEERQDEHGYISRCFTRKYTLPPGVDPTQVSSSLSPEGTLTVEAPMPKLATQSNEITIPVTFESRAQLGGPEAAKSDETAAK
UniProt O95817: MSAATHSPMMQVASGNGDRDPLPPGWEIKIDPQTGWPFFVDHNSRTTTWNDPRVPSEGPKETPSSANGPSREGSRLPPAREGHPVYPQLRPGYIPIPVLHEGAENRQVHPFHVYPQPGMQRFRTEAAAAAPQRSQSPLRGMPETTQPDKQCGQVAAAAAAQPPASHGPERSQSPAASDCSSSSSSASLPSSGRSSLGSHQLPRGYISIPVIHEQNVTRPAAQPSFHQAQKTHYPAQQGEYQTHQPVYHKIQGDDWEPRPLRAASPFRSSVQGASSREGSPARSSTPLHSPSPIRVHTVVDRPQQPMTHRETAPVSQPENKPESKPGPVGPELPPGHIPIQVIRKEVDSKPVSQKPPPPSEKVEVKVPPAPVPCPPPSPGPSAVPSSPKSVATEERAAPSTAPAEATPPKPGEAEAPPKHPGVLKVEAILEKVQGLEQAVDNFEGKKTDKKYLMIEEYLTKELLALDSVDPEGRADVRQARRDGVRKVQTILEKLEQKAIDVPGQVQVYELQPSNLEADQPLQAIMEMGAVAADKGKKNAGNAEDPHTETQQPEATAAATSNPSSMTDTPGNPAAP
BAG3-eGFP IPV mutant (both IPV motifs replaced with GPG) (O95817, form named): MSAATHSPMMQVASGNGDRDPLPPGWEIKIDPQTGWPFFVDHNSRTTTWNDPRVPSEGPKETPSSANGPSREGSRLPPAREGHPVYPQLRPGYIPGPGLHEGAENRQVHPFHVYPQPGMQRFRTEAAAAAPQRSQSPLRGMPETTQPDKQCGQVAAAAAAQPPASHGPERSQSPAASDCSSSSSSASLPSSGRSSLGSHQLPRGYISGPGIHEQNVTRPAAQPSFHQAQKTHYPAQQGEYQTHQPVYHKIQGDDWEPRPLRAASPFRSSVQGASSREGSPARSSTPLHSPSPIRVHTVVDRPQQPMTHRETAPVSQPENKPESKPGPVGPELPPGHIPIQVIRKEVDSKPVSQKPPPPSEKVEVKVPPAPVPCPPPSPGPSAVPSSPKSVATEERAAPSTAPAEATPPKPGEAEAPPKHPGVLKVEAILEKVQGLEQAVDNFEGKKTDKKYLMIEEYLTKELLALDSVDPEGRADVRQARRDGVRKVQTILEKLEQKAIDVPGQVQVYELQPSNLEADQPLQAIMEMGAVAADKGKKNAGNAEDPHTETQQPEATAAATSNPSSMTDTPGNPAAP

Legend:
[1] = target: V5-epitope-tagged HSP27 (HSPB1-V5), P182L mutant (human) (UniProt P04792); assay: sucrose gradient fractionation
[2] = target: BAG3-eGFP IPV mutant (both IPV motifs replaced with GPG) (human) (UniProt O95817); assay: co-IP
[3] = target: BAG3-eGFP (Bcl2-associated athanogene 3), wild type (human) (UniProt O95817); assay: co-IP
[4] = target: V5-epitope-tagged HSP27 (HSPB1-V5), wild type (human) (UniProt P04792); assay: co-IP
[5] = target: V5-epitope-tagged HSP27 (HSPB1-V5), P182L mutant (human) (UniProt P04792); assay: co-IP

Row | binding [1] | binding [2] | binding [3] | binding [4] | binding [5] | Substance
1 | binds | no binding | binds | – | – | V5-epitope-tagged HSP27 (HSPB1-V5), P182L mutant (from UniProt P04792 1-205)
2 | – | no binding | binds | – | – | V5-epitope-tagged HSP27 (HSPB1-V5), wild type (from UniProt P04792 1-205)
3 | – | – | – | binds | binds | BAG3-eGFP (Bcl2-associated athanogene 3), wild type (from UniProt O95817 1-575)
